# Library screen at single concentrations

Chains of the proteins cited; added tags and fusions are not shown. Residues count along the entry.
UniProt Q4DA54, 1-478: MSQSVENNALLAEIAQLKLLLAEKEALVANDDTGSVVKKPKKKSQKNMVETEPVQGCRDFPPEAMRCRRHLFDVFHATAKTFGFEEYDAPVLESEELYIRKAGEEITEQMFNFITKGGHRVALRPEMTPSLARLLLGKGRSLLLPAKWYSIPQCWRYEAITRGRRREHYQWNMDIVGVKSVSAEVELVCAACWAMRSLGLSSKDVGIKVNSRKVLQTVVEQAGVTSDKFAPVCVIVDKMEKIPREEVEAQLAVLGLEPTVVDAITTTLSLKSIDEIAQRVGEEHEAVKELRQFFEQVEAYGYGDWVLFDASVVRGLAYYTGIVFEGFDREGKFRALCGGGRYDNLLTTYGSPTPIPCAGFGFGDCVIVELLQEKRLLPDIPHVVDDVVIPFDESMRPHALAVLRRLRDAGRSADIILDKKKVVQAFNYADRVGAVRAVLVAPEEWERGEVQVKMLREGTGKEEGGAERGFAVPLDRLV
UniProt A4I591, 1-473: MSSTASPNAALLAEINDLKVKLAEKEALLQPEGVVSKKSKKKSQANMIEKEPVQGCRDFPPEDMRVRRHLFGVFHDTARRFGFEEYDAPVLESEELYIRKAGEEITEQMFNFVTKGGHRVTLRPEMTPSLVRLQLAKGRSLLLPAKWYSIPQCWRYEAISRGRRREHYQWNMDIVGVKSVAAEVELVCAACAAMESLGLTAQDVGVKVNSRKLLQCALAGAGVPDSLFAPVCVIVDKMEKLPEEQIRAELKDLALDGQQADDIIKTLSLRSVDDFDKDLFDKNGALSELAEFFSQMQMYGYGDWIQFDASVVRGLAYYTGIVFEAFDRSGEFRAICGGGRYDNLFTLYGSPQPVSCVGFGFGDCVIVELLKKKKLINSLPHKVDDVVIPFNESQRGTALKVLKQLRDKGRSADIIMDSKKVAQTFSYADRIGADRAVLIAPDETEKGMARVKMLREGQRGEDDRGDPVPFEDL

Measurements from “University of Dundee, Small-Polar-MMV Screening Library” (2021), ChEMBL document CHEMBL3988442.

Values are the deposited “Percent Effect”, in %.
How 0% and 100% were set is not recorded. Most values in the screen are low, and negative values occur.
This is an unselected part of the compounds tested.
Two or more numbers in one place are separate tests of the same structure; such repeats can differ widely.
A dash means the value is not listed here; it may have been measured.

Toxoplasma: 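Assay of Toxoplasma gondii numbers, read through their beta-galactosidase reporter with a colour substrate. Tested at 10 µM. The record gives no direction; the compounds picked for IC50 retests had high values, so higher reads as fewer parasites. Size under these conditions: about 67,000 compounds, about 260 of them at 50% or above in at least one test.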
TcHisRS: 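Histidine-tRNA ligase, Trypanosoma cruzi CL Brener (UniProt Q4DA54). Enzyme assay of histidyl-tRNA synthetase; the read-out is not stated. Tested at 30 µM. Direction is inferred from retests: higher values go with stronger inhibition. About 69,000 compounds were tested under these conditions; 0.045% (about 31) showed 50% or more at least once.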
LiHisRS: 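Histidine-tRNA ligase, Leishmania infantum (UniProt A4I591). Enzyme assay of histidyl-tRNA synthetase; the read-out is not stated. Concentration: 30 µM. Higher reads as stronger inhibition (inferred: compounds with an IC50 in retests scored well above the rest). The assay is labelled LdHisRS but filed under L. infantum. About 69,000 compounds were tested under these conditions; 0.6% (about 410) showed 50% or more at least once.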
T. brucei: 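Whole-parasite assay of Trypanosoma brucei over 72 hours; the read-out is not stated. Tested at 30 µM. The record gives no direction; compounds that gave an IC50 in retests scored well above the rest, so higher reads as stronger inhibition. Values scatter widely below zero; nearly all retest evidence comes from the higher of the two concentrations used. Size under these conditions: about 64,000 compounds, about 940 of them at 50% or above in at least one test.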

| # | SMILES | Toxoplasma | TcHisRS | LiHisRS | T. brucei |
|---|---|---|---|---|---|
| 1 | `CNC(=O)c1cccc(C2CNCCN2C(=O)c2ccn(C)n2)c1` (centres unmarked) | 19.49 | 2.222 | -4.124 | -9.964 |
| 2 | `CCc1noc(CSc2n[nH]c(-c3ccccn3)n2)n1` | 1.447 | 6.897 | 11.61 | -18.17 |
| 3 | `CC1=Nc2c(c(=O)[nH]n2C2CCCC2)C(c2cccnc2)S1` (centres unmarked) | 3.774 | 4.95 & 5.941 | 23.91 & 20.65 | -8.957 & -19.23 |
| 4 | `COCC(=O)N1CCC(Nc2ccnc3ccc(Cl)cc23)CC1` | -4.293 | 9.524 | 16.44 | -10.12 |
| 5 | `Fc1ccccc1Cc1noc(CN2CCC(N3CCSCC3)CC2)n1` | -1.617 | 2.703 | 0 | -33.37 |
| 6 | `CC(C)=CCC1(C(=O)O)CCCN(c2ccnc(C)n2)C1` (centres unmarked) | -2.862 | 5.844 | 8.065 | 3.191 |
| 7 | `Cc1ccc(CSc2nc(N)cc(NCCC(=O)N3CCCC3)n2)cc1` | -4.756 | 15.27 | 35.53 | -2.074 |
| 8 | `Cn1ncc(C(=O)N2CCCC(n3cccn3)C2)c1C1CC1` (centres unmarked) | 3.571 | 6.415 | 12.16 | 38.38 |
| 9 | `Cc1ccc(CN2CCC3(CCN(c4cnn(C)c4)C3=O)C2)s1.O=C(O)C(F)(F)F` (centres unmarked) | -3.118 | - | - | 17.16 |
| 10 | `CC(C)NC(=O)N1CCC2(CC1)COc1ccccc1S(=O)(=O)N(C)C2` | -7.352 | 5.607 | 6.944 | -66.23 |
| 11 | `CN1C(=O)CCC12CCN(S(=O)(=O)c1ccccc1)CC2` | -10.35 | -4.854 | 13.59 | -22.09 |
| 12 | `O=C(CC1CC1)N1CCc2ncc(Cn3cncn3)n2CC1.O=C(O)C(F)(F)F` | -30.34 | - | - | -52.29 |
| 13 | `O=S(=O)(c1ccc(Cl)cc1)N1CCc2nc(C3CCNCC3)ncc2C1` | - | 10.64 | 32.29 | - |
| 14 | `COc1cc(F)ccc1C(C(=O)O)N(C)CCN1CCCC1` (centres unmarked) | -17.43 | 3.226 | 15.15 | 1.393 |
| 15 | `CC(C)N(C)CC(=O)N1CCCC(n2ccnc2)C1` (centres unmarked) | 1.55 | 4.762 | 10.96 | -69.86 |
| 16 | `Cc1cnc(N2CCC3(CC2)CN(Cc2cccs2)CCO3)nc1` | - | -1.676 | 1.923 | - |
| 17 | `CN1CSC[C@H]1C(=O)N1CCN(Cc2cccc(F)c2)CC1` | 2.54 | 3.784 | 0 | -75.1 |
| 18 | `CC(C)Oc1ccc(C(=O)NCc2ccc3c(c2)CCCN3C)cn1` | 4.47 | 2.579 | 8.772 | 9.808 |
| 19 | `O=C(c1cnc[nH]1)N1CCC(Oc2cccnc2)CC1` | -2.132 | 5.844 | 1.613 | -12.52 |
| 20 | `O=C(c1cccs1)N1CCN(Cc2cc(=O)c3ccccc3[nH]2)CC1` | 11.19 | 2.97 | 22.83 | 15.06 |
| 21 | `Cc1cc(NC(=O)NCC(c2ccsc2)N(C)C)n(C)n1` (centres unmarked) | 6.304 | 1.058 | 21.21 | -9.103 |
| 22 | `CN1CCc2c(c(COc3cncnc3)nn2CC2CC2)C1.O=C(O)C(F)(F)F` | 4.409 | - | - | -60.21 |
| 23 | `Cc1nc(C(C)C)sc1C(=O)N(C)Cc1nc(-c2ccccn2)no1` | 12.56 | -4.372 | 19.3 | -131.2 |
| 24 | `COc1ccc(CNC[C@H]2COCc3nc4cccnc4n32)cn1` | -2.094 | 0.4975 | 22.22 | 6.235 |
| 25 | `COc1ccccc1CN(C)c1nccc(-c2cn(C)nc2C)n1` | 3.634 | 2.905 | 20.39 | 37.46 |
| 26 | `Cc1nn(C)c2nc(C(C)C)cc(C(=O)Nc3n[nH]c(C4CC4)n3)c12` | 17.04 | 4.167 | 18.75 | - |
| 27 | `CS(=O)(=O)c1ccc(CNCC2CCN(CCO)CC2)cc1` | -0.1095 | 3.306 | -3.846 | -72.82 |
| 28 | `N#Cc1cccc(OCCCN2CCN(C(=O)c3ccoc3)CC2)c1` | 2.761 | 9.244 | -38.6 | -8.414 |
| 29 | `O=C(Nc1ccc(F)cc1F)Nc1c[nH]c(=O)[nH]c1=O` | -1.441 | 5.435 | 20.39 | 27.36 |
| 30 | `COCC1CN(C(=O)c2ccco2)Cc2nccn2C1` (centres unmarked) | 2.934 | 4.082 | 13 | -15.93 |
| 31 | `CCc1cc(C(=O)N2CCCC(c3cc(=O)nc4n3CCC4)C2)no1` (centres unmarked) | -17.4 | 4.857 | 9.396 | -4.155 |
| 32 | `CCn1ncc(S(=O)(=O)N2CCCC3(CC=CNC3=O)C2)c1C` (centres unmarked) | - | 3.846 | 12.68 | - |
| 33 | `Cc1noc([C@H]2C[C@H]3CN(C(=O)Cc4ccsc4)CC[C@H]3O2)n1` | - | 7.438 | 7.273 | - |
| 34 | `COc1ccc(C(=O)N2CCN(c3cc(CCN)nc(C)n3)CC2)cc1` | -9.408 | 24.62 | 50.4 | -44.61 |
| 35 | `COc1ccc(S(=O)(=O)N2CCC(S(C)(=O)=O)CC2)cc1C` | -6.874 | 4.348 | 20.39 | 33.33 |
| 36 | `O=c1cc(Cn2cncn2)nc2n1CCCN(CC1CC1)C2` | -1.266 | 2.732 | 13.73 | 3.44 |
| 37 | `CN(Cc1ccc(N(C)C)cc1)C(=O)NCc1nnc2n1CCC2` | 3.464 | 5.233 | 5.357 | -9.487 |
| 38 | `N#Cc1cc(NC(=O)c2ccsc2)ccc1N1CCC(O)CC1` | 2.193 | 1.667 | 26.92 | 43.05 |
| 39 | `CN1CCN(CCCOc2ccccc2CN2C[C@H]3CC[C@H]2C3)CC1` | - | 6.173 | 11.76 | - |
| 40 | `Cc1nn(C)cc1C(C)Nc1ncc(C(N)=O)cc1Cl` (centres unmarked) | 17.15 | 1.657 | 15.49 | -40.46 |
| 41 | `CCS(=O)(=O)N1CCC2(CC1)CC[C@@]1(C(=O)N(C)C)CN(C(C)=O)C[C@@H]21` | - | -2.674 | 12.82 | - |

2 of the entries, repeated:

| SMILES | Toxoplasma | TcHisRS | LiHisRS | T. brucei |
|---|---|---|---|---|
| `CC(C)NC(=O)N1CCC2(CC1)COc1ccccc1S(=O)(=O)N(C)C2` | -7.352 | 5.607 | 6.944 | -66.23 |
| `CNC(=O)c1cccc(C2CNCCN2C(=O)c2ccn(C)n2)c1` (centres unmarked) | 19.49 | 2.222 | -4.124 | -9.964 |